Test results taken from PMC9445082.
These are yes or no findings as the source states them, for the method shown. In cells and extracts the contact can be indirect. Some results given as binding are weak or reduced against the parent protein; the word gives no strength. Where a sequence is shown, tags or fusion partners need not be part of it.

By UniProt entry, the sequences of proteins in these tests, tags left out.
UniProt Q6RET7: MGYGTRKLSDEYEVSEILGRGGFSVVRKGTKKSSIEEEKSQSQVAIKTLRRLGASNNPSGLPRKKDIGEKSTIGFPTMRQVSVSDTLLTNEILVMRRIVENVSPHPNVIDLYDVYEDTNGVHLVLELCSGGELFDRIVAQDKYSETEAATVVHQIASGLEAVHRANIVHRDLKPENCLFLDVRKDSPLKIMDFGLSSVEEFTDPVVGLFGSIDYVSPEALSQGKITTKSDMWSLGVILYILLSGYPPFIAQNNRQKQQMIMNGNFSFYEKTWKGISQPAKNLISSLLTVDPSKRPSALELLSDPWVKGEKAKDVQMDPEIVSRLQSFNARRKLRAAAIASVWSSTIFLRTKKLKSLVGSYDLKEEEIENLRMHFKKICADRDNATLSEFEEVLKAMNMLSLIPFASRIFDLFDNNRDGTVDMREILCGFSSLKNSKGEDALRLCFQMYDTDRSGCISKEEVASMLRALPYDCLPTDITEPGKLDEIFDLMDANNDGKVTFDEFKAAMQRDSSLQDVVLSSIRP

Assays:
[1] = biological target: T1, VPY-GFP (Medicago truncatula) (UniProt D3J162); assay: co-IP; tagged proteins co-expressed in N. benthamiana leaves (agroinfiltration, 2 days); extract in 150 mM Tris-HCl pH 7.5, 150 mM NaCl, 10% glycerol, 10 mM EDTA, 0.1% Tween-20; GFP-tagged protein captured on GFP-Trap MA beads, 2 h at 4 °C; four washes; partner detected by western blot
T1 sequence: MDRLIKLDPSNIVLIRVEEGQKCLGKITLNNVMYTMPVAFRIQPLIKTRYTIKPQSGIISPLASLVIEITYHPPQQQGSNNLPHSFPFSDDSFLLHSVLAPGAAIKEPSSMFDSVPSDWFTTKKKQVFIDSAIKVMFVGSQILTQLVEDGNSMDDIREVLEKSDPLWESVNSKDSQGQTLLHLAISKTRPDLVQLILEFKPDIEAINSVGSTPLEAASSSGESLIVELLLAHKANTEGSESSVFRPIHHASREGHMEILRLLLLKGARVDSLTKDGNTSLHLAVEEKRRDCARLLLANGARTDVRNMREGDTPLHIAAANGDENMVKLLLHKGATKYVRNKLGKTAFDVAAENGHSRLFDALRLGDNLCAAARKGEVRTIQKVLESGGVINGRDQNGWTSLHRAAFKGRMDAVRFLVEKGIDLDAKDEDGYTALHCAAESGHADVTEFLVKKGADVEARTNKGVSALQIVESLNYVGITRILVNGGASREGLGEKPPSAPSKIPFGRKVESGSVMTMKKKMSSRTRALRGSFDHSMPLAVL

[2] = biological target: GFP-DMI3 (Medicago truncatula) (UniProt Q6RET7); assay: as above

Row | Molecule | binding [1] | binding [2]
1 | DMI3-FLAG (from UniProt Q6RET7 1-523) (enzyme) | binds | –
2 | VPY-HA (protein, UniProt D3J162 1-541) MDRLIKLDPSNIVLIRVEEGQKCLGKITLNNVMYTMPVAFRIQPLIKTRYTIKPQSGIISPLASLVIEITYHPPQQQGSNNLPHSFPFSDDSFLLHSVLAPGAAIKEPSSMFDSVPSDWFTTKKKQVFIDSAIKVMFVGSQILTQLVEDGNSMDDIREVLEKSDPLWESVNSKDSQGQTLLHLAISKTRPDLVQLILEFKPDIEAINSVGSTPLEAASSSGESLIVELLLAHKANTEGSESSVFRPIHHASREGHMEILRLLLLKGARVDSLTKDGNTSLHLAVEEKRRDCARLLLANGARTDVRNMREGDTPLHIAAANGDENMVKLLLHKGATKYVRNKLGKTAFDVAAENGHSRLFDALRLGDNLCAAARKGEVRTIQKVLESGGVINGRDQNGWTSLHRAAFKGRMDAVRFLVEKGIDLDAKDEDGYTALHCAAESGHADVTEFLVKKGADVEARTNKGVSALQIVESLNYVGITRILVNGGASREGLGEKPPSAPSKIPFGRKVESGSVMTMKKKMSSRTRALRGSFDHSMPLAVL | – | binds
